The values that follow come from patent US20220288067A1 (University of Pennsylvania, published 2022).

The chains behind the UniProt entries cited, without tags or fusion partners. Where a name states a change or a piece, a line headed by the entry shows the natural chain unless it says otherwise.
UniProt P10275: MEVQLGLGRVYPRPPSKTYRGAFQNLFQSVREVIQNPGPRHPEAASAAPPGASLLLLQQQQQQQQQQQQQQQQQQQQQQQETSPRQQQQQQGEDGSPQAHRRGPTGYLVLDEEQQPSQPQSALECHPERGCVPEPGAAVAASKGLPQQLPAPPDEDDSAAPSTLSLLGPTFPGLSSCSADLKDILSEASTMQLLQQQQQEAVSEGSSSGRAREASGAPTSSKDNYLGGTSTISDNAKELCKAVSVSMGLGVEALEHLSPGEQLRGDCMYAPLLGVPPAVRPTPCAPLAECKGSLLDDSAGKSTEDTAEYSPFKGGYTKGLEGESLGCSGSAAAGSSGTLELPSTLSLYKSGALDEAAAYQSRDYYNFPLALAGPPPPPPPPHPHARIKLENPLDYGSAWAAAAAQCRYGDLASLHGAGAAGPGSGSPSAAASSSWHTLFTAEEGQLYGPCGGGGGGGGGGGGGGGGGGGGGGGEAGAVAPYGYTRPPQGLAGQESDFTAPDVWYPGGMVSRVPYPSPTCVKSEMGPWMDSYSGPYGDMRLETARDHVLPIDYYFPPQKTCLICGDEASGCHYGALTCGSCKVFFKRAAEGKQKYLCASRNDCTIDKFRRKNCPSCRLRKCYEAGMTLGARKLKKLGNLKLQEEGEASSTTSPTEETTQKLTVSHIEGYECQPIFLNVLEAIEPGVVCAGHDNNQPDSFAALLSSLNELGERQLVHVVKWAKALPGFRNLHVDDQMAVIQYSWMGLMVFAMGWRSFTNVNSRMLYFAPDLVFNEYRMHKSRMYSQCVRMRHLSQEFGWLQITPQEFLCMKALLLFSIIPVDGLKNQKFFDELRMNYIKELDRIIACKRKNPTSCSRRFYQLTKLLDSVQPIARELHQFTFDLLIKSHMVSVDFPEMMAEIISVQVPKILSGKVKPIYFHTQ
UniProt Q15648: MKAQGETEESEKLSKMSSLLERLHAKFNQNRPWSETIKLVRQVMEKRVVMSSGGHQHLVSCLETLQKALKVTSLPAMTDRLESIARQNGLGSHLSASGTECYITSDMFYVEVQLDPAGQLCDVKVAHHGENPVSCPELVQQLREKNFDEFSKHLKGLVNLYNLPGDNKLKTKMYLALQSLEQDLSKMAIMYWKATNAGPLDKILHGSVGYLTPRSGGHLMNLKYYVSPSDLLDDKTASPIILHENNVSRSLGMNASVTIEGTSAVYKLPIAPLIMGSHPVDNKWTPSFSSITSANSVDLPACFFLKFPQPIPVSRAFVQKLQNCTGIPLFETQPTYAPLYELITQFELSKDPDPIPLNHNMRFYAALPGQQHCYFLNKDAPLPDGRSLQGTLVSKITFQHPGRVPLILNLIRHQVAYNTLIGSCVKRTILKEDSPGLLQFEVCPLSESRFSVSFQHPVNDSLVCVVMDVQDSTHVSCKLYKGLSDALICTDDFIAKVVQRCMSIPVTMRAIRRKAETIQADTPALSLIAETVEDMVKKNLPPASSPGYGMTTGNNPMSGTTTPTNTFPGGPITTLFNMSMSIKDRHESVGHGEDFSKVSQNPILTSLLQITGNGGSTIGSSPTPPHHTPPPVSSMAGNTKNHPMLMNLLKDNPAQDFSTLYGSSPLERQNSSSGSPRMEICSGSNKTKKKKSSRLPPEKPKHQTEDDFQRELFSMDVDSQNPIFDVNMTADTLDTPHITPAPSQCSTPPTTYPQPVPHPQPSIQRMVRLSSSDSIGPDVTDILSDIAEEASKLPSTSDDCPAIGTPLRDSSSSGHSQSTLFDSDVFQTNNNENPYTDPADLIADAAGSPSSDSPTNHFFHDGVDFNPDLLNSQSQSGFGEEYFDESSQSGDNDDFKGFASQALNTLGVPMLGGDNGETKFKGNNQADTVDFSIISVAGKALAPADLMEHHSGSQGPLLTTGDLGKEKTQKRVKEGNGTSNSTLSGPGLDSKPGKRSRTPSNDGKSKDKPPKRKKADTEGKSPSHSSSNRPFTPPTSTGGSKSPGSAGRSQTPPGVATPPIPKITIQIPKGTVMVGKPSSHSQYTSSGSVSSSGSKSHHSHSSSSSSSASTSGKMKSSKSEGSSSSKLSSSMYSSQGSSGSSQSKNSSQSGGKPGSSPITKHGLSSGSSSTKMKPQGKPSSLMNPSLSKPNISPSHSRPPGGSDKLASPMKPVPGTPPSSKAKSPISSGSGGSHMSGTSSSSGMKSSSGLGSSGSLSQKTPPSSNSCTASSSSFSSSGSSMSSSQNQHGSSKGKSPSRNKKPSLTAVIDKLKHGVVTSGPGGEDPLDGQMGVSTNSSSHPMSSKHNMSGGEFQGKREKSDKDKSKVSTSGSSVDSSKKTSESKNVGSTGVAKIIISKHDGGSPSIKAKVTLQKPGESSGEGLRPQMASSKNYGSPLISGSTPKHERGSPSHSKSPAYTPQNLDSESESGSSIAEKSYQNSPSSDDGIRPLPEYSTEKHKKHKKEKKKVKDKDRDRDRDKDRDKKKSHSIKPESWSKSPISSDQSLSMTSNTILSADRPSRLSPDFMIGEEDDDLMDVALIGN

No constants are given. Whether binding was seen depends on the method and setting. Some results given as binding are weak or reduced against the parent protein; the word gives no strength.

In this test the target is Androgen receptor (AR), endogenous (human) (UniProt P10275). Kind of test: anti-HA immunoprecipitation from nuclear extracts of LNCaP cells treated with 100 nM THZ1 for 12 h, immunoblot for AR (FIG. 19D).

For “HA-tagged MED1 T1457D phosphomimic (from UniProt Q15648 1-1581)”, the binding entry was “binds”.
